Results: PubChem BioAssay AID330 (DTP/NCI, 2004)
The list is a part of this screen's results and no random one: it is rich in T/C values a quarter to a half above the control, in often repeated tests (any T/C) and in doses without a T/C. Further doses and runs are listed elsewhere. T/C gives the treated animals as a percentage of the vehicle group. Some entries give survivors of the animals treated and no T/C: the source files T/C as zero there, which appears to mark a toxic dose or a test without result, not a measured value. Some survivor counts are full or nearly so, which does not show that the dose was tolerated: the source hardly ever lists a survival T/C far under the control, and the zero likely stands for such cases as well. Survivors were counted at the toxicity check, usually on the fifth day, unless a day is given; later deaths do not show. Schedule codes are those of the source, read here as Q, the interval in days (D) or hours (H), X, the number of doses. Some entries were tested several times; the results are listed from low to high. For survival time, the PubChem record calls one and a half times the control and up active, and a quarter to a half above the control has no call in these data; cut-offs in other NCI protocols can differ. Some T/C values carry the count of animals alive at the toxicity check (mostly the fifth day); without a count, all were alive then.

Tested on: P388 leukemia ip, CD2F1 mice, survival T/C
Assay: NCI In Vivo Anticancer Drug Screen. Data for tumor model P388 Leukemia (intraperitoneal) in CD2F1 (CDF1) mice
Details: T/C endpoint: median survival time, higher T/C = longer survival
[1] = dose: 50.0 mg/kg/injection, schedule: Q01DX005 (ip), vehicle: Klucel (hydroxypropylcellulose) (HPC)
[2] = dose: 100.0 mg/kg/injection, schedule: Q01DX005 (ip), vehicle: Klucel (hydroxypropylcellulose) (HPC)
[3] = dose: 12.5 mg/kg/injection, schedule: Q01DX005 (ip), vehicle: Klucel (hydroxypropylcellulose) (HPC)
[4] = dose: 25.0 mg/kg/injection, schedule: Q01DX005 (ip), vehicle: Klucel (hydroxypropylcellulose) (HPC)
[5] = dose: 200.0 mg/kg/injection, schedule: Q01DX005 (ip), vehicle: Klucel (hydroxypropylcellulose) (HPC)
[6] = dose: 120.0 mg/kg/injection, schedule: Q01DX005 (ip), vehicle: Klucel (hydroxypropylcellulose) (HPC)
[7] = dose: 50.0 mg/kg/injection, schedule: Q01DX009 (ip), vehicle: saline with Tween-80
[8] = dose: 100.0 mg/kg/injection, schedule: Q01DX009 (ip), vehicle: saline with Tween-80
[9] = dose: 200.0 mg/kg/injection, schedule: Q01DX005 (ip), vehicle: saline with Tween-80

## CC(=O)C(Cl)C(=O)c1c(C)[nH]n(-c2ccccc2)c1=O (centres undefined)
[1]
  T/C: 126 % of control
[2]
  T/C: 126 % of control
dose: 200.0 mg/kg/injection, schedule: Q01DX005 (ip), vehicle: Klucel (hydroxypropylcellulose) (HPC), evaluated on day 20
  T/C: 126 % of control [5 of 6 alive]
dose: 200.0 mg/kg/injection, schedule: Q01DX005 (ip), vehicle: Klucel (hydroxypropylcellulose) (HPC), evaluated on day 30
  T/C: 145 % of control
dose: 400.0 mg/kg/injection, schedule: Q01DX005 (ip), vehicle: Klucel (hydroxypropylcellulose) (HPC)
  survivor count: 1 of 6

## COCC12CN(C)C3C4C(OC)C1C3(C(OC)CC2O)C1CC2(O)C(OC)C(O)C4(OC(C)=O)C1C2OC(=O)c1ccccc1 (centres undefined)
dose: 0.19 mg/kg/injection, schedule: Q01DX005 (ip), vehicle: Klucel (hydroxypropylcellulose) (HPC)
  survivor count: 1 of 6
dose: 0.39 mg/kg/injection, schedule: Q01DX005 (ip), vehicle: Klucel (hydroxypropylcellulose) (HPC)
  survivor count: 0 of 6
dose: 0.78 mg/kg/injection, schedule: Q01DX005 (ip), vehicle: Klucel (hydroxypropylcellulose) (HPC)
  survivor count: 0 of 6
dose: 1.56 mg/kg/injection, schedule: Q01DX005 (ip), vehicle: Klucel (hydroxypropylcellulose) (HPC)
  survivor count: 0 of 6
dose: 3.12 mg/kg/injection, schedule: Q01DX005 (ip), vehicle: Klucel (hydroxypropylcellulose) (HPC)
  survivor count: 0 of 6
dose: 6.25 mg/kg/injection, schedule: Q01DX005 (ip), vehicle: Klucel (hydroxypropylcellulose) (HPC)
  survivor count: 0 of 6
[3]
  survivor count: 0 of 6
[4]
  survivor count: 0 of 6
[1]
  survivor count: 0 of 6
[2]
  survivor count: 0 of 6
[5]
  survivor count: 0 of 6
dose: 12.0 micrograms/kg/injection, schedule: Q01DX005 (ip), vehicle: Klucel (hydroxypropylcellulose) (HPC)
  survivor count: 1 of 6

## O=C(c1cc2c(cc1Br)OCO2)N1CCc2cc([N+](=O)[O-])ccc21
dose: 100.0 mg/kg/injection, schedule: Q01DX009 (ip), vehicle: other
  survivor count: 6 of 6

## CC(N=[N+]=[N-])n1nnnc1-c1ccccc1 (centres undefined)
dose: 400.0 mg/kg/injection, schedule: Q01DX001 (ip), vehicle: Klucel (hydroxypropylcellulose) (HPC)
  survivor count: 2 of 6

## Cc1c(C)c(C)c(C(=O)c2ccccc2C(=O)NCCSC(C)(C)C)c(C)c1C
[6]
  survivor count: 6 of 6

## C[n+]1ccc(C#N)c(C#N)c1
dose: 60.0 mg/kg/injection, schedule: Q01DX005 (ip), vehicle: Klucel (hydroxypropylcellulose) (HPC)
  survivor count: 2 of 6
[6]
  survivor count: 0 of 6
dose: 240.0 mg/kg/injection, schedule: Q01DX005 (ip), vehicle: Klucel (hydroxypropylcellulose) (HPC)
  survivor count: 0 of 6

## O=C1C=C(N2CC2)C(=O)C=C1N1CC1
dose: 0.12 mg/kg/injection, schedule: Q01DX009 (ip), vehicle: saline
  T/C: 126 and 146 % of control
dose: 1.0 mg/kg/injection, schedule: Q01DX009 (ip), vehicle: saline
  survivor count: 6 of 6
dose: 2.0 mg/kg/injection, schedule: Q01DX009 (ip), vehicle: saline
  survivor count: 5 of 6 and 6 of 6

## O=C1OC2(CCCC2)OC(=O)C1=C/C=C/c1ccc([N+](=O)[O-])o1
dose: 800.0 mg/kg/injection, schedule: Q04DX003 (ip), vehicle: saline with Tween-80
  survivor count: 3 of 6

## CC(=O)C[n+]1ccccc1Oc1ccccc1
dose: 100.0 mg/kg/injection, schedule: Q01DX005 (ip), vehicle: saline
  survivor count: 1 of 5

## O=c1c2ncccc2cc2n1CCc1c-2[nH]c2ccccc12
dose: 25.0 mg/kg/injection, schedule: Q01DX009 (ip), vehicle: saline with Tween-80
  survivor count: 6 of 6

## COc1ccc(NC(=O)Oc2ccc3c(C)cc(=O)oc3c2)c(OC)c1
[7]
  T/C: 132 % of control

## CC1(CN2CCCC2)CCC(NC(=O)C(c2ccccc2)c2ccccc2)C(C)(C)O1 (centres undefined)
dose: 100.0 mg/kg/injection, schedule: Q01DX001 (ip), vehicle: saline with Tween-80
  survivor count: 3 of 6
dose: 200.0 mg/kg/injection, schedule: Q01DX001 (ip), vehicle: saline with Tween-80
  survivor count: 0 of 6

## COc1ccc(OC)c(NC(=O)NC(c2ccccc2)c2ccccc2)c1
dose: 12.5 mg/kg/injection, schedule: Q01DX009 (ip), vehicle: Klucel (hydroxypropylcellulose) (HPC)
  survivor count: 6 of 6
dose: 50.0 mg/kg/injection, schedule: Q01DX009 (ip), vehicle: Klucel (hydroxypropylcellulose) (HPC)
  survivor count: 6 of 6
dose: 100.0 mg/kg/injection, schedule: Q01DX009 (ip), vehicle: Klucel (hydroxypropylcellulose) (HPC)
  survivor count: 6 of 6

## O=c1c2cc3c(=O)n(CC[P+](c4ccccc4)(c4ccccc4)c4ccccc4)c(=O)c3cc2c(=O)n1CC[P+](c1ccccc1)(c1ccccc1)c1ccccc1
dose: 6.25 mg/kg/injection, schedule: Q01DX009 (ip), vehicle: water
  survivor count: 3 of 6
dose: 12.5 mg/kg/injection, schedule: Q01DX009 (ip), vehicle: water
  survivor count: 0 of 6
dose: 25.0 mg/kg/injection, schedule: Q01DX009 (ip), vehicle: water
  survivor count: 0 of 6

## C=C1C(=O)C23C(OC(=O)/C=C/C)C1CCC2C12COC3(O)C(O)C1C(C)(C)CCC2O (centres undefined)
dose: 30.0 mg/kg/injection, schedule: Q01DX009 (ip), vehicle: saline with Tween-80
  survivor count: 5 of 6

## CCCCCC(O)C1C(=O)OC(C)C(O)/C=C/C=C/C=C/C=C/C=C(\C)C(O)C(O)C(O)CC(O)CC(O)CC(O)CC(O)CC1O (centres undefined)
dose: 16.0 mg/kg/injection, schedule: Q01DX010 (ip), vehicle: saline
  survivor count: 3 of 6
dose: 32.0 mg/kg/injection, schedule: Q01DX010 (ip), vehicle: saline
  survivor count: 0 of 6

## OCC[N-]CC[N-]CCO.[Cl][Co][Cl]
dose: 200.0 mg/kg/injection, schedule: Q01DX009 (ip), vehicle: saline
  survivor count: 0 of 6

## [NH-]C(CCC(N)=O)C(=O)O.[NH-]C(CCC(N)=O)C(=O)O.[Zn+2] (centres undefined)
[7]
  T/C: 130 % of control [5 of 6 alive]
[8]
  survivor count: 3 of 6
dose: 200.0 mg/kg/injection, schedule: Q01DX009 (ip), vehicle: saline with Tween-80
  survivor count: 0 of 6

## Cc1cnc2ccccc2c1/C=C/c1ccc(N(C)C)cc1
[8]
  T/C: 140 % of control

## CN1C2CCC1C(O)C(c1ccc(Cl)cc1)C2 (centres undefined)
[5]
  survivor count: 2 of 6

## O=c1c2ccccc2nc(-c2ccc(Cl)cc2)n1O
[9]
  survivor count: 6 of 6

## CN1CCN=C1c1ccc(NC(=O)c2ccc(C(=O)Nc3ccc(C4=NCCN4C)cc3)c(Cl)c2)cc1
[3]
  T/C: 128 % of control [4 of 6 alive]
  survivor count: 3 of 6
[4]
  survivor count: 0 of 6
[1]
  survivor count: 0 of 6
[2]
  survivor count: 0 of 6
[5]
  survivor count: 0 of 6

## CC(C)CC(NC(=O)C(N)Cc1c[nH]c2ccccc12)C(N)=O (centres undefined)
dose: 100.0 mg/kg/injection, schedule: Q04DX003 (ip), vehicle: saline
  survivor count: 6 of 6

## NC(=O)c1c(N)nn2c(-c3ccccc3)cc(-c3ccccc3)cc12
dose: 200.0 mg/kg/injection, schedule: Q01DX001 (ip), vehicle: Klucel (hydroxypropylcellulose) (HPC)
  survivor count: 6 of 6

## C=CC1CCCC[N+]1(C)Cc1ccccc1 (centres undefined)
dose: 25.0 mg/kg/injection, schedule: Q01DX005 (ip), vehicle: saline
  survivor count: 2 of 6
dose: 50.0 mg/kg/injection, schedule: Q01DX005 (ip), vehicle: saline with Tween-80
  survivor count: 0 of 6
dose: 100.0 mg/kg/injection, schedule: Q01DX005 (ip), vehicle: saline with Tween-80
  survivor count: 0 of 6
[9]
  survivor count: 0 of 6

## CCNCC1COc2cccc(OCC)c2O1 (centres undefined)
dose: 200.0 mg/kg/injection, schedule: Q04DX002 (ip), vehicle: saline
  survivor count: 2 of 6
dose: 400.0 mg/kg/injection, schedule: Q04DX002 (ip), vehicle: saline
  survivor count: 0 of 6

## Cc1ccc(C#N)s1
[7]
  survivor count: 0 of 6

## O=C1CC(c2ccccc2)C(c2ccccc2)CO1 (centres undefined)
dose: 200.0 mg/kg/injection, schedule: Q04DX003 (ip), vehicle: Klucel (hydroxypropylcellulose) (HPC)
  survivor count: 6 of 6
